Results reported in patent US20160200815A1.
Results are given in words; binding and its absence hold for the method and conditions named. Some binding calls cover weakened binding; strength is not graded here.

The chains behind the UniProt entries cited, without tags or fusion partners. Where a name states a change or a piece, a line headed by the entry shows the natural chain unless it says otherwise. Residues count along the entry.
UniProt Q8N423, residues 22-460: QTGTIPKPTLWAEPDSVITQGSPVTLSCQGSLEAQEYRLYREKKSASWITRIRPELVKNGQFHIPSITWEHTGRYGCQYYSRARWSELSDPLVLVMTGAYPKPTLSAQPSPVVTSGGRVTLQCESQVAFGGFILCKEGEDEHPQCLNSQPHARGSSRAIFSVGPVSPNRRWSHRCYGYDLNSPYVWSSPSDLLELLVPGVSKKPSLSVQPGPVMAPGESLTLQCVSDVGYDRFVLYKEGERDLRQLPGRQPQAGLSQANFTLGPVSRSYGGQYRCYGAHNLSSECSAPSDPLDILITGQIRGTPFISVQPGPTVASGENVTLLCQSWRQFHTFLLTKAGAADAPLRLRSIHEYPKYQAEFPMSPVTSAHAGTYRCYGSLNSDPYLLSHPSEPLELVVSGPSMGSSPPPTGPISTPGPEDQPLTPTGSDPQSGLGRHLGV
UniProt Q8TDQ0: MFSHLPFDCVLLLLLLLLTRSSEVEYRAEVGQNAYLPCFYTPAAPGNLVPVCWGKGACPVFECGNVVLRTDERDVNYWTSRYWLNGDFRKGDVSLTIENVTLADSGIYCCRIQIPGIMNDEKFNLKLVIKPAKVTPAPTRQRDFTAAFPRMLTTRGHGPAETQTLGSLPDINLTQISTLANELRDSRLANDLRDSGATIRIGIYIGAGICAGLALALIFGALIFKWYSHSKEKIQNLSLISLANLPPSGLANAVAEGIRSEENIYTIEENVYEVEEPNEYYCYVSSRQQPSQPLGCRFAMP

What was measured:
[1] = target: Human LILRB2-Fc Chimera (R&D Systems, 2078-T4) (human) (UniProt Q8N423); assay: Octet (BLI): human LILRB2 ECD-Fc loaded on anti-human Fc capture sensors, mIgG1 control at 150 nM, then human TIM-3-ECD-HIS in solution
[2] = target: HIS-Tagged human TIM-3 ECD (human) (UniProt Q8TDQ0); assay: Octet (BLI): hTIM-3-HIS loaded on Ni-NTA sensors, mIgG1 control at 150 nM, then human LILRB2 ECD-Fc in solution
[3] = target: HIS-Tagged human TIM-3 ECD (human) (UniProt Q8TDQ0); assay: Octet BLI (FIG. 6A)

“HIS-Tagged human TIM-3 ECD (from UniProt Q8TDQ0 22-202) (receptor)” was tested, and the binding [1] was “binds”.

“Human LILRB2-Fc Chimera (R&D Systems, 2078-T4) (from UniProt Q8N423 22-460) (Fc fusion)” was tested, and the binding [2] was “binds” and the binding [3] was “binds”.
